Results as given in the supplement of paper PMC9135407.
Values joined by “and” are separate entries in the source; they are usually repeats but may differ in a detail not shown here. Identical values can stand only once. Counter-ions that a name gives are not always drawn. ± gives the standard deviation of the averaged measurements. Some of the results follow. Plates or batches differ in their baseline, so values are only roughly comparable.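 Culture-activated primary human stellate myofibroblasts, where regained lipid droplets signal inactivation. Value: share of Hoechst-counted cells above a per-plate Bodipy cutoff, in duplicate wells, with DMSO negative and nortriptyline positive controls on each plate. Hits: a control-normalized score above the plate's top-tenth-percentile nortriptyline wells, or one of a plate's three best wells. Final well concentrations are not given.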

Test system: primary human hepatic stellate cells (donor 1)
Experiment: percent Bodipy-positive cells; higher = more lipid droplet accumulation
Conditions: 48 h
[1] = library stock concentration: 3.33 mM
[2] = library stock concentration: 10 mM
[3] = library stock concentration: 7.2 mM
[4] = library stock concentration: 1 mM

C=C1C[C@@H]2[C@H](CC[C@]3(C)C(=O)CC[C@@H]23)[C@@]2(C)C=CC(=O)C=C12 [Exemestane]
percent Bodipy-positive cells [1]: 12.1 ± 6.5%
percent Bodipy-positive cells (library stock concentration: 6.7 mM): 7.33 ± 0.26%
percent Bodipy-positive cells [2]: 25.3 ± 5.5%

C=C1C[C@@H]2[C@H](CC[C@]3(C)C(=O)CC[C@@H]23)[C@@]2(C)C=CC(=O)C=C12
percent Bodipy-positive cells [2]: 42.3 ± 7.1%

Cc1ccc(-n2nccn2)c(C(=O)N2CCN(c3nc4cc(Cl)ccc4o3)CC[C@H]2C)c1 [Suvorexant (MK-4305)]
percent Bodipy-positive cells [1]: 29.6 ± 6.9%
percent Bodipy-positive cells [2]: 38.6 ± 9.8%

COc1ccc(CCN2CCC(Nc3nc4ccccc4n3Cc3ccc(F)cc3)CC2)cc1 [Astemizole]
percent Bodipy-positive cells: 98.82 ± 0.14%

COc1ccc2c(c1OC)C(=O)O[C@H]2[C@@H]1c2cc3c(cc2CCN1C)OCO3 [1s,9r-hydrastine]
percent Bodipy-positive cells [2]: 28.3 ± 8.2%

CCCN1CCO[C@@H]2c3cc(O)ccc3OC[C@H]21 [(?)-PD 128,907 hydrochloride]
percent Bodipy-positive cells [2]: 13.2 ± 3.1%

CCCN1CCO[C@@H]2c3cc(O)ccc3OC[C@H]21
percent Bodipy-positive cells [1]: 11.5 ± 4.7%
percent Bodipy-positive cells [2]: 11.4% and 5.28%

C=CCC1(C(C)CCC)C(=O)NC(=S)NC1=O (configuration not stated) [Thiamylal sodium]
percent Bodipy-positive cells [3]: 1.15 ± 0.57%

CCCCCCCCCCCCCCCC[n+]1ccccc1 [Cetylpyridinium Chloride]
percent Bodipy-positive cells [1]: 20.9 ± 14%
percent Bodipy-positive cells [2]: 100%

CCCCCCCCCCCCCCCC[n+]1ccccc1 [Cetylpyridinium chloride]
percent Bodipy-positive cells (library stock concentration: 5.9 mM): 89.1 ± 13%
percent Bodipy-positive cells [2]: 77%

c1ccc2c3c([nH]c2c1)CNCC3
percent Bodipy-positive cells [2]: 52 ± 6.6%

Fc1cc(F)c2c(c1)[C@H]1C=CC[C@@H]1C(c1cccnc1)N2 (some centres not stated) [Golgicide A]
percent Bodipy-positive cells [1]: 99.38 ± 0.2%
percent Bodipy-positive cells [2]: 94.03 ± 0.75%

CC(=O)O[C@@H]1CC[C@@]2(C)[C@@H](CC[C@@H]3[C@@H]2CC[C@]2(C)C(=O)CC[C@@H]32)C1 [Androsterone acetate]
percent Bodipy-positive cells [2]: 35.3 ± 0.74%

c1ccc(/N=N/c2ccccc2)cc1 [Azobenzene]
percent Bodipy-positive cells [2]: 34.1 ± 15%

CCCCCCC(=O)CCCCCC/C=C/C[C@@H](O)[C@H](O)[C@@](N)(CO)C(=O)O [Myriocin]
percent Bodipy-positive cells [4]: 11.6 ± 1.4%

CCOP(=S)(OCC)Oc1nc(Cl)c(Cl)cc1Cl
percent Bodipy-positive cells [2]: 26.91 ± 0.14%

CCOC(=O)c1ncn2c1CN(C)C(=O)c1cc(N=[N+]=[N-])ccc1-2
percent Bodipy-positive cells [2]: 5.14 ± 2.4%

CCCn1c(C)c(C(=O)c2cccc3ccccc23)c2ccccc21
percent Bodipy-positive cells [4]: 7.06 ± 2.8%

CCCCCCC(=O)O[C@H]1CC[C@H]2[C@@H]3C=CC4=CC(=O)CC[C@]4(C)[C@H]3CC[C@]12C [.DELTA.6-Testosterone Enanthate]
percent Bodipy-positive cells [4]: 8.74 ± 1.3%

O=P1(N(CCCl)CCCl)NCCCO1 (configuration not stated) [Cytoxan]
percent Bodipy-positive cells [2]: 22.6 ± 5.2%

O=P1(N(CCCl)CCCl)NCCCO1 (configuration not stated) [Cyclophosphamide hydrate]
percent Bodipy-positive cells [3]: 1.19 ± 0.64%
percent Bodipy-positive cells [2]: 9.55 ± 3.4%

O=P1(N(CCCl)CCCl)NCCCO1 (configuration not stated) [Cyclophosphamide monohydrate]
percent Bodipy-positive cells (library stock concentration: 7.7 mM): 5.38 ± 3.5%
percent Bodipy-positive cells [2]: 29.3 ± 7.3%

c1ccc2c(c1)sc1ccccc12 [Dibenzothiophene]
percent Bodipy-positive cells [1]: 12.8 ± 3%
percent Bodipy-positive cells (library stock concentration: 10.9 mM): 3.16 ± 0.48%

CCCN[C@@H]1CCc2c(OC)cccc2[C@@H]1C [(+)-AJ 76 hydrochloride]
percent Bodipy-positive cells [2]: 23.5 ± 5.4%

CCCCC/C=C\C/C=C\C/C=C\C/C=C\CCCC(=O)NCCCC(=O)O [N-Arachidonoyl-.gamma.-Aminobutyric Acid]
percent Bodipy-positive cells [4]: 14.5 ± 3.6%

CO[C@@H]1C=C2CCN(C)[C@@H]2C2c3cc4c(cc3C(=O)OC21)OCO4 (some centres not stated) [Ungerine nitrate]
percent Bodipy-positive cells: 6.69 ± 0.15%

CCCCC/C=C\C/C=C\C/C=C\C/C=C\CCCC(=O)Nc1ccc([N+](=O)[O-])cc1 [Arachidonoyl p-Nitroaniline]
percent Bodipy-positive cells [4]: 16.3 ± 3.5%

CC(=O)OCC1=C(C(=O)[O-])N2C(=O)[C@@H](NC(=O)CCC[C@@H](N)C(=O)[O-])[C@H]2SC1.[Zn+2] [Cephalosporin C zinc salt]
percent Bodipy-positive cells [2]: 57.3 ± 0.95%

CN(C)[C@@H]1C(=O)C(C(N)=O)=C(O)[C@@]2(O)C(=O)C3=C(O)c4c(O)cccc4[C@@](C)(O)[C@H]3[C@H](O)[C@@H]12 [Oxytetracycline (Terramycin)]
percent Bodipy-positive cells [1]: 16.9 ± 13%
percent Bodipy-positive cells [2]: 16.8 ± 1.6%

CN1C(=O)CCS(=O)(=O)C1c1ccc(Cl)cc1 (configuration not stated) [Chlormezanone]
percent Bodipy-positive cells: 20.9 ± 8.5%
percent Bodipy-positive cells [1]: 9.93 ± 1.9%

CC(=O)NC1CCSC1=O (configuration not stated) [Citiolone]
percent Bodipy-positive cells [2]: 38.41 ± 0.36%

O=C(O)[C@@H]1CCN1 [L-azetidine-2-carboxylic acid]
percent Bodipy-positive cells [2]: 51.8 ± 5.5%

O=C(O)Cc1cnc[nH]1 [Imidazole-4-acetic acid hydrochloride]
percent Bodipy-positive cells [2]: 44.6 ± 25%

CCCCC/C=C\C/C=C\C/C=C\C/C=C\CCCC(=O)N[C@@H](C)C(=O)O [N-Arachidonoyl-L-Alanine]
percent Bodipy-positive cells [4]: 13 ± 2%

CNC(=O)Oc1ccccc1OC(C)C
percent Bodipy-positive cells [2]: 17.6 ± 1.7%

C[C@H]1CC[C@]2(NC1)O[C@H]1C[C@H]3[C@@H]4CC[C@H]5C[C@@H](O[C@@H]6O[C@H](CO)[C@H](O[C@@H]7O[C@H](CO)[C@@H](O)[C@H](O[C@@H]8OC[C@@H](O)[C@H](O)[C@H]8O)[C@H]7O[C@@H]7O[C@H](CO)[C@@H](O)[C@H](O)[C@H]7O)[C@H](O)[C@H]6O)CC[C@]5(C)[C@H]4CC[C@]3(C)[C@H]1[C@@H]2C [Tomatine]
percent Bodipy-positive cells: 99.38 ± 0.88%

COc1ccc(C(=O)OC2C[C@H]3CC[C@@H](C2)N3C)cc1OC (some centres not stated) [Convolamine hydrochloride]
percent Bodipy-positive cells: 36.3 ± 4.9%

COc1cc2c(cc1O)C[C@H]1c3c(cc(O)c(OC)c3-2)CCN1C [Boldine]
percent Bodipy-positive cells: 30.8 ± 4.4%

O=C1C2CCN(CC2)C1(CO)CO
percent Bodipy-positive cells [4]: 7.65 ± 2.9%
percent Bodipy-positive cells [2]: 5.44 ± 0.45%

O=C1CCO1 [Beta-propiolactone]
percent Bodipy-positive cells [2]: 35.6 ± 5.4%
percent Bodipy-positive cells (library stock concentration: 27.8 mM): 8.86 ± 2%

O=C(CCCN1CCC(n2c(=O)[nH]c3ccccc32)CC1)c1ccc(F)cc1 [Benperidol]
percent Bodipy-positive cells: 48.6 ± 13%

C[C@]12CC[C@H](O)C[C@H]1CC[C@@H]1[C@@H]2CC[C@]2(C)[C@@H](C3=CC(=O)OC3)CC[C@]12O [Digitoxigenin]
percent Bodipy-positive cells: 90 ± 4.5%

CCC(Oc1ccc(Cl)cc1)C(=O)OC1CC2CCC(C1)N2C.O=C(O)/C=C\C(=O)O (configuration not stated) [SM-21 maleate]
percent Bodipy-positive cells [2]: 56 ± 3%

c1ccc2sc(C3(N4CCCCC4)CCCCC3)cc2c1 [BTCP hydrochloride]
percent Bodipy-positive cells [2]: 89.1 ± 5.5%

c1ccc2sc(C3(N4CCCCC4)CCCCC3)cc2c1 [BTCP maleate]
percent Bodipy-positive cells [2]: 41 ± 13%

CN/C(=N\S(=O)(=O)c1ccc(Cl)cc1)N1C[C@H](c2ccccc2)C(c2ccc(Cl)cc2)=N1
percent Bodipy-positive cells [4]: 7.56 ± 3%

N#C/C(=C\c1ccc(O)c(O)c1)C(N)=S [AG213 (Tyrphostin 47)]
percent Bodipy-positive cells (library stock concentration: 22.7 mM): 9.52 ± 1.3%

N#C/C(=C\c1ccc(O)c(O)c1)C(N)=S [Tyrphostin 47]
percent Bodipy-positive cells [2]: 13.7 ± 2%

C[N+]1(C)C2CCC1CC(OC(=O)c1c[nH]c3ccccc13)C2 (configuration not stated) [3-Tropanylindole-3-carboxylate methiodide]
percent Bodipy-positive cells [2]: 16.5 ± 3%

C[C@@H]1CN([C@H]2CC[C@](C#N)(c3ccc(F)cc3)CC2)CC[C@]1(C(=O)O)c1ccccc1 [Levocabastine HCl]
percent Bodipy-positive cells (library stock concentration: 4.8 mM): 9.58 ± 1%

C[C@@H]1CN([C@H]2CC[C@](C#N)(c3ccc(F)cc3)CC2)CC[C@]1(C(=O)O)c1ccccc1 [Levocabastine hydrochloride]
percent Bodipy-positive cells: 7.97 ± 0.39%

CCc1cc2c(s1)-n1c(C)nnc1CN=C2c1ccccc1Cl [Etizolam]
percent Bodipy-positive cells [1]: 16.4 ± 7%
percent Bodipy-positive cells [2]: 36.2 ± 0.27%

C(=C\c1ccccc1)/CN1CCN(CCOC(c2ccccc2)c2ccccc2)CC1
percent Bodipy-positive cells [2]: 32.3 ± 4.9%

CCCC[N+]1(C)[C@@H]2C[C@@H](OC(=O)[C@H](CO)c3ccccc3)C[C@H]1[C@@H]1O[C@@H]12 (single isomer, unassigned; (-)) [(-)-Scopolamine,n-Butyl-, bromide]
percent Bodipy-positive cells [2]: 14.6 ± 0.77%

COc1ccc(OC)c(C(O)C(C)N)c1 (configuration not stated) [Methoxamine hydrochloride]
percent Bodipy-positive cells: 34 ± 16%
percent Bodipy-positive cells (library stock concentration: 8.1 mM): 0.943 ± 0.29%
percent Bodipy-positive cells [2]: 7.8% and 27%

Ic1cncc(OC[C@@H]2CCN2)c1
percent Bodipy-positive cells [2]: 8.66 ± 2.7%

CC([C@H](O)c1ccccc1)N(C)C (some centres not stated)
percent Bodipy-positive cells [2]: 51.8 ± 6.6%

CCOc1cncc(/C=C/CCNC)c1 [TC 2559 difumarate]
percent Bodipy-positive cells [2]: 8.85 ± 4.2%

CCC(=O)O[C@H]1CC[C@H]2[C@@H]3CCC4=CC(=O)CC[C@]4(C)[C@H]3CC[C@]12C [Testosterone propionate]
percent Bodipy-positive cells: 29.7 ± 17%
percent Bodipy-positive cells (library stock concentration: 5.8 mM): 37 ± 4.6%
percent Bodipy-positive cells [2]: 63.4 ± 8.3%

C=CCN1CC[C@]2(C)c3cc(O)ccc3C[C@H]1C2C (single isomer, unassigned; (+))
percent Bodipy-positive cells [2]: 10.8 ± 2%

CN1C2CC(=O)CC1C(O)C2 (configuration not stated) [6-Hydroxytropinone]
percent Bodipy-positive cells: 7.87 ± 6.4%

C[C@@H]1CC[C@]2(NC1)O[C@H]1C[C@H]3[C@@H]4CC=C5C[C@@H](O)CC[C@]5(C)[C@H]4CC[C@]3(C)[C@H]1[C@@H]2C [Solasodine]
percent Bodipy-positive cells: 7.93 ± 4.1%
percent Bodipy-positive cells [2]: 37.7 ± 5.4%

CCCCC/C=C\C/C=C\C/C=C\C/C=C\CCCC(=O)NCCc1ccc(O)c(O)c1 [N-Arachidonoyl Dopamine]
percent Bodipy-positive cells [4]: 7.47 ± 1.6%

COC(=O)[C@]1(O)C[C@@H]2O[C@@]1(C)n1c3ccccc3c3c4c(c5c6ccccc6n2c5c31)C(=O)NC4 [K-252a, Nocardiopsis sp.]
percent Bodipy-positive cells [1]: 75.1 ± 20%

Cc1sc2c(c1C)C(c1ccc(Cl)cc1)=N[C@@H](CC(=O)OC(C)(C)C)c1nnc(C)n1-2
percent Bodipy-positive cells (library stock concentration: 80 uM): 42 ± 4.9%
percent Bodipy-positive cells (library stock concentration: 400 uM): 49.81 ± 0.26%
percent Bodipy-positive cells (library stock concentration: 2 mM): 48.8 ± 5.5%
percent Bodipy-positive cells [1]: 44.3 ± 9.6%
percent Bodipy-positive cells [2]: 36.9% and 59.8%

O=c1c2ccccc2[se]n1-c1ccccc1 [Ebselen]
percent Bodipy-positive cells (library stock concentration: 18.2 mM): 100%

Cl[C@H]1[C@H](Cl)[C@@H](Cl)[C@@H](Cl)[C@H](Cl)[C@H]1Cl [Lindane]
percent Bodipy-positive cells (library stock concentration: 6.9 mM): 3.06 ± 1.2%
percent Bodipy-positive cells [2]: 36.4 ± 14%

Cc1ccc2c(c1)C1(CCN(CCc3nc(-c4ccccc4)oc3C)CC1)OC(=O)N2
percent Bodipy-positive cells [2]: 23.8 ± 3.4%

CCCCC/C=C\C/C=C\C/C=C\C/C=C\CCCC(=O)NCC(=O)O [Arachidonoyl Glycine]
percent Bodipy-positive cells [4]: 14.4 ± 4.2%

CCCCC/C=C\C/C=C\C/C=C\C/C=C\CCCC(=O)NCC(=O)O [N-arachidonoylglycine]
percent Bodipy-positive cells [4]: 11.6 ± 10%

Oc1ccc(Cl)cc1Cc1cc(Cl)ccc1O [Dichlorophene]
percent Bodipy-positive cells [2]: 25 ± 4.4%

CC(O)CN1CCN(CC(=O)[O-])CCN(CC(=O)[O-])CCN(CC(=O)[O-])CC1.[Gd+3] (configuration not stated)
percent Bodipy-positive cells [2]: 39.4 ± 7%
